From article PMC5458509
Results are given in words; binding and its absence hold for the method and conditions named. In cells and extracts the contact can be indirect. Some results given as binding are weak or reduced against the parent protein; the word gives no strength. For some assays here: Tags and fused reporters may be left off the sequences shown.

Amino acid sequences for entries named in this document (tags omitted).
UniProt P33302: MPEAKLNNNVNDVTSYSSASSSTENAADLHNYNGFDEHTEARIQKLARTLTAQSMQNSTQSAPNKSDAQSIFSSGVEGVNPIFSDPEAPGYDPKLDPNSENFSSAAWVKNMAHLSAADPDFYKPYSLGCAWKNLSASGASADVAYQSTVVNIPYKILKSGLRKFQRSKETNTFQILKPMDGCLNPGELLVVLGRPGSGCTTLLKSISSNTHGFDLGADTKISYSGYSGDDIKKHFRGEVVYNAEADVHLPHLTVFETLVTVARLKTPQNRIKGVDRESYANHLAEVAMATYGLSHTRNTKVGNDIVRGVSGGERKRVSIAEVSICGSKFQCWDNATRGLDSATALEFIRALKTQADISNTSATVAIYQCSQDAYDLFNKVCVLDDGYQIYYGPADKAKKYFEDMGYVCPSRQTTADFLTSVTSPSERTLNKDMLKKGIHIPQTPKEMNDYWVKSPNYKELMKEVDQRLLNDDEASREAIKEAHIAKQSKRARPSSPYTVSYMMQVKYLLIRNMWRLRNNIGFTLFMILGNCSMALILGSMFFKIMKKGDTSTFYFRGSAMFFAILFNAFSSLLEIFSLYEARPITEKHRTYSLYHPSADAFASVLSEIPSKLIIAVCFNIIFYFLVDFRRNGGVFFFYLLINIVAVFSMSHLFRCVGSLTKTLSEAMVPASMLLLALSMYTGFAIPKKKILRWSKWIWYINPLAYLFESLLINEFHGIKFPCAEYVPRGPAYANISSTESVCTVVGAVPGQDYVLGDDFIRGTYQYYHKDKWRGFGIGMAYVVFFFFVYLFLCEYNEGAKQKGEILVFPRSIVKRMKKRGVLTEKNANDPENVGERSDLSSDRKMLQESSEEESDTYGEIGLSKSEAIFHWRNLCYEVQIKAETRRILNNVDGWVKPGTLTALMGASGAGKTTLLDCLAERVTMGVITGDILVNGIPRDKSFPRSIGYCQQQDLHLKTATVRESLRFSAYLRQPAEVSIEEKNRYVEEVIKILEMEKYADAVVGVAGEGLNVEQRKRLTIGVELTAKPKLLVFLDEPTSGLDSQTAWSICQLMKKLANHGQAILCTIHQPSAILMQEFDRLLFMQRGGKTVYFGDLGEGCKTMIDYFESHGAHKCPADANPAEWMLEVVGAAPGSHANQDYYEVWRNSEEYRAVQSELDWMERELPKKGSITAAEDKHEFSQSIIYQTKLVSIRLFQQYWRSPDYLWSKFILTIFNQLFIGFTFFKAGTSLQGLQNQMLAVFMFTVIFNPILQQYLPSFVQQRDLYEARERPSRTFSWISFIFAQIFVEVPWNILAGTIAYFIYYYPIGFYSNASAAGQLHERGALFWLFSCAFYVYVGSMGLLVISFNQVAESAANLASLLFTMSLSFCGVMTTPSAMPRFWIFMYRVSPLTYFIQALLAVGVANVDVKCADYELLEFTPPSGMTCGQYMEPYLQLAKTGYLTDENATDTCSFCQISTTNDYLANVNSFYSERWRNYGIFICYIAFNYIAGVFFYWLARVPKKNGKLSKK
UniProt P32568: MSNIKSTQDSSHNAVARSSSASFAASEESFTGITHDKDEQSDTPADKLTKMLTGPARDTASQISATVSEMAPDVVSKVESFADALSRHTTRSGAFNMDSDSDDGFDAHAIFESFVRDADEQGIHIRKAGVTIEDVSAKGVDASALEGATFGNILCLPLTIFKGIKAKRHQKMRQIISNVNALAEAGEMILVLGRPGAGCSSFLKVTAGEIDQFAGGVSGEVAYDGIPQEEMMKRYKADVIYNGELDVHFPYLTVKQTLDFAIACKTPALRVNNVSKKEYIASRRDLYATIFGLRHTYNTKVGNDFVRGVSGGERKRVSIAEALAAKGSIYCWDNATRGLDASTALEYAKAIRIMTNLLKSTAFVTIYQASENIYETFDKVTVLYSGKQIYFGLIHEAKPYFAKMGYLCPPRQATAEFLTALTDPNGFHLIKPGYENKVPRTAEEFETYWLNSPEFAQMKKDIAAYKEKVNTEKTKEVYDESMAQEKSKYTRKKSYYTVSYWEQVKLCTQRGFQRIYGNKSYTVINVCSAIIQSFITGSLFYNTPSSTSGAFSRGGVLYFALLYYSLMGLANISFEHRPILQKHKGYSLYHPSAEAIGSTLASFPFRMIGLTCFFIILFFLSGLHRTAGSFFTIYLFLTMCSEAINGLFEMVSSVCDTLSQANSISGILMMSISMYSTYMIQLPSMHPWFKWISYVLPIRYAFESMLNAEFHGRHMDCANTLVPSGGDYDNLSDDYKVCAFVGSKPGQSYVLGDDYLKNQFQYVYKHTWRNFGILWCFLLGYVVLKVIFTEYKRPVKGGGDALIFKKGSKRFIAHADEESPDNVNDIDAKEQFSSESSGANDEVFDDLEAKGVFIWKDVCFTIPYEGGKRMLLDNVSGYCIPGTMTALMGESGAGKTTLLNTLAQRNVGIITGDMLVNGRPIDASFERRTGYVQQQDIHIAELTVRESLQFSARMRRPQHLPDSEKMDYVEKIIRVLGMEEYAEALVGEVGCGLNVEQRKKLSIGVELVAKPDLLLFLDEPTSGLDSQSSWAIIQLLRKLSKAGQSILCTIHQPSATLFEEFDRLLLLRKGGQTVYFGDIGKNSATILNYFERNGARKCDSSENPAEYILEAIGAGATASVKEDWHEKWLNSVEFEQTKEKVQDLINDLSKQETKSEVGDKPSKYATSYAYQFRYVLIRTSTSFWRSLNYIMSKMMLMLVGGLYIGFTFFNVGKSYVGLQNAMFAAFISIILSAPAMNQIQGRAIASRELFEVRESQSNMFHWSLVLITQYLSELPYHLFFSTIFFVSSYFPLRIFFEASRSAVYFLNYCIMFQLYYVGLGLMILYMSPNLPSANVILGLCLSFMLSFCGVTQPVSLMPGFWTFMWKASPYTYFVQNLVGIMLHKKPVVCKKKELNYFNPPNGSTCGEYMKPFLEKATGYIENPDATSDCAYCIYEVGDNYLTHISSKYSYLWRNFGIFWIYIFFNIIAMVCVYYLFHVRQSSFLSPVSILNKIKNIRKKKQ
UniProt P20081: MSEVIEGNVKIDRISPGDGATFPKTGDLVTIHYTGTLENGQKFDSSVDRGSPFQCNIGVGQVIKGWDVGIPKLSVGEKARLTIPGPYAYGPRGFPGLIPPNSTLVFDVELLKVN

T1: Ftr1-Rluc PCA fragment fusion (bait of the Renilla luciferase PCA) (S. cerevisiae) (UniProt P40088)
T1 sequence: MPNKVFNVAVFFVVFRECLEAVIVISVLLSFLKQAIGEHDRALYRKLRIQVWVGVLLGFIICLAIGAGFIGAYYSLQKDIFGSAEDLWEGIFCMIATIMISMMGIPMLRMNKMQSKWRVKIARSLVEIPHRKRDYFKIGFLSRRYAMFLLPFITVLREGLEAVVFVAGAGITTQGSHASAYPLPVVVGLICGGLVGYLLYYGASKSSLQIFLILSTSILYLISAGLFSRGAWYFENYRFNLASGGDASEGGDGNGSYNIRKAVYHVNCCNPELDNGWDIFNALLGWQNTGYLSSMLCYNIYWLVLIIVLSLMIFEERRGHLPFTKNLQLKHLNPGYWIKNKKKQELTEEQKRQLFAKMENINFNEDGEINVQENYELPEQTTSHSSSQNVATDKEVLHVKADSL

T2: Ftr1-mDHFR-F[1,2] (bait PCA construct) (S. cerevisiae) (UniProt P40088)
T2 sequence: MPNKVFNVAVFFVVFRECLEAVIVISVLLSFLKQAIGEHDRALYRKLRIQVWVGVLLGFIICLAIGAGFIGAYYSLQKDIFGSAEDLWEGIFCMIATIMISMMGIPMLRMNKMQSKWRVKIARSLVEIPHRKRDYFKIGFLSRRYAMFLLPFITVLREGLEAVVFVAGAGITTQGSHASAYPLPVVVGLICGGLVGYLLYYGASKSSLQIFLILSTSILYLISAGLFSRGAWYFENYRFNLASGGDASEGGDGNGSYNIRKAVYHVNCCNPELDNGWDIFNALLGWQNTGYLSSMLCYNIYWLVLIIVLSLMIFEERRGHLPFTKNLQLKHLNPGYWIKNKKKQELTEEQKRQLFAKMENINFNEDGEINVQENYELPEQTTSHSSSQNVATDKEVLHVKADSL

T3: Fmp45-mDHFR-F[1,2] (bait PCA construct) (S. cerevisiae) (UniProt Q07651)
T3 sequence: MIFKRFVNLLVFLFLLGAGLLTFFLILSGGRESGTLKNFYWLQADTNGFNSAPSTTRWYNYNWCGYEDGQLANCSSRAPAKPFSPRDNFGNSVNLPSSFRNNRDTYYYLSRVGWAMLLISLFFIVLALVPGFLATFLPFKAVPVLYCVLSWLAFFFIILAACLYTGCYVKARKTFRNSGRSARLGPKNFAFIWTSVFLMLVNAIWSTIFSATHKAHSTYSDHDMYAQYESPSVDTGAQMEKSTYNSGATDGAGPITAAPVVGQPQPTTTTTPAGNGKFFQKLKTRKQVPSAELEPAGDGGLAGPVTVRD

T4: Tpo1-mDHFR-F[1,2] (bait PCA construct) (S. cerevisiae) (UniProt Q07824)
T4 sequence: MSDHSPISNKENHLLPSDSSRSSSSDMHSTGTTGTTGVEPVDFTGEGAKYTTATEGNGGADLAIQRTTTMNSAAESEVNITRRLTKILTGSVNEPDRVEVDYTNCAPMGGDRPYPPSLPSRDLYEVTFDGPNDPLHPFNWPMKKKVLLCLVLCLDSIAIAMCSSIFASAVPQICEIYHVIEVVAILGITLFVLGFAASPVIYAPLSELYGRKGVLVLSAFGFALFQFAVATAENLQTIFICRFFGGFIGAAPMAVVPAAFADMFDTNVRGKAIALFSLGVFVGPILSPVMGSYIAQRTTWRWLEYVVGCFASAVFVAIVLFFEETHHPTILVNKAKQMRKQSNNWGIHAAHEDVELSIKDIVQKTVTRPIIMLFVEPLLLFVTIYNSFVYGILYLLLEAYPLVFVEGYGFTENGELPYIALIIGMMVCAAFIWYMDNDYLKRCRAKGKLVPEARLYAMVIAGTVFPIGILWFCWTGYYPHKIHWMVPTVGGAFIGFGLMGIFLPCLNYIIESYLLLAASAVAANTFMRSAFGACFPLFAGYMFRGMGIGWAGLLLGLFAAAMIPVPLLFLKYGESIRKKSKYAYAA

T5: aspartate kinase Hom3-mDHFR-F[1,2] (bait PCA construct) (S. cerevisiae) (UniProt P10869)
T5 sequence: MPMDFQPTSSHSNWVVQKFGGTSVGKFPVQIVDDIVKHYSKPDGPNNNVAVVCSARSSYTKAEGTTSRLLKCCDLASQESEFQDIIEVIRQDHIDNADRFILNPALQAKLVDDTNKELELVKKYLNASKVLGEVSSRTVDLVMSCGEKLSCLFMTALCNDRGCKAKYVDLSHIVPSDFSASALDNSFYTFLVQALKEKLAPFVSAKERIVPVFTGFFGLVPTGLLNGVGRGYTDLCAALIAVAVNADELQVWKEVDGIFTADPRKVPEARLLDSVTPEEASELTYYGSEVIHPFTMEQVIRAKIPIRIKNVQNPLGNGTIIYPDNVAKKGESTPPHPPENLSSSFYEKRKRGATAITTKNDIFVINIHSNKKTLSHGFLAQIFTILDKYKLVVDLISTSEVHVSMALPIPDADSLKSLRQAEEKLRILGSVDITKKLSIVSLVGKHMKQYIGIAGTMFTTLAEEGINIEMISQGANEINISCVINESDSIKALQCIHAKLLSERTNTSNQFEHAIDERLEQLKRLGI

T6: Shr3-mDHFR-F[1,2] (bait PCA construct) (S. cerevisiae) (UniProt Q02774)
T6 sequence: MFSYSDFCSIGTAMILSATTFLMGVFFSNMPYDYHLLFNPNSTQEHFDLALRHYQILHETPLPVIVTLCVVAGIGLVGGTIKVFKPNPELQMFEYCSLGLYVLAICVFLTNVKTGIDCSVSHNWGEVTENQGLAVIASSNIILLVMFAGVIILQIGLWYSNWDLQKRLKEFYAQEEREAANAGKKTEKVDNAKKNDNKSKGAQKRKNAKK


Experiments:
[1] = target: T1, Ftr1-Rluc PCA fragment fusion (bait of the Renilla luciferase PCA) (S. cerevisiae); experiment: split reporter; Renilla luciferase (Rluc) PCA in diploid S. cerevisiae, luminescence of 1-2 x 10^7 cells in PBS pH 7.2 with 1 mM EDTA and 20 uM benzyl coelenterazine; cells grown with 200 uM copper sulfate
[2] = target: T2, Ftr1-mDHFR-F[1,2] (bait PCA construct) (S. cerevisiae); experiment: split reporter; split mDHFR PCA, isolated growth of diploid strains in liquid medium with 0.5 ug/ml methotrexate, optical density (OD600) tracked up to 32 h at 30 C, compared with mDHFR(-) control strains
[3] = target: T2, Ftr1-mDHFR-F[1,2] (bait PCA construct) (S. cerevisiae); experiment: split reporter; PPiSeq: split mDHFR PCA in diploid S. cerevisiae, pooled growth of double-barcoded strains with 0.5 ug/ml methotrexate, barcode sequencing every 3 generations over ~12 generations, fitness relative to control strains lacking mDHFR; permissive environment (0.5% DMSO)
[4] = target: T3, Fmp45-mDHFR-F[1,2] (bait PCA construct) (S. cerevisiae); experiment: split reporter; PPiSeq: split mDHFR PCA in diploid S. cerevisiae, pooled growth with 0.5 ug/ml methotrexate and one of four perturbagens: 0.001% hydrogen peroxide, 175 mM sodium chloride, 200 uM copper sulfate or 50 uM FK506; fitness relative to control strains lacking mDHFR
[5] = target: T4, Tpo1-mDHFR-F[1,2] (bait PCA construct) (S. cerevisiae); experiment: as above
[6] = target: T2, Ftr1-mDHFR-F[1,2] (bait PCA construct) (S. cerevisiae); experiment: as above
[7] = target: T5, aspartate kinase Hom3-mDHFR-F[1,2] (bait PCA construct) (S. cerevisiae); experiment: split reporter; PPiSeq: split mDHFR PCA in diploid S. cerevisiae, pooled growth of double-barcoded strains with 0.5 ug/ml methotrexate, barcode sequencing every 3 generations over ~12 generations, fitness relative to control strains lacking mDHFR; permissive environment (0.5% DMSO)
[8] = target: T6, Shr3-mDHFR-F[1,2] (bait PCA construct) (S. cerevisiae); experiment: split reporter; PPiSeq: split mDHFR PCA in diploid S. cerevisiae, pooled growth with 0.5 ug/ml methotrexate and one of four perturbagens: 0.001% hydrogen peroxide, 175 mM sodium chloride, 200 uM copper sulfate or 50 uM FK506; fitness relative to control strains lacking mDHFR

| Molecule | binding [4] | binding [5] | binding [6] | other results |
| --- | --- | --- | --- | --- |
| Pdr5-Rluc PCA fragment fusion (prey of the Renilla luciferase PCA) (from UniProt P33302 1-1511) | – | – | – | binding [1]: binds |
| Pdr5-mDHFR-F[3] (prey PCA construct) (from UniProt P33302 1-1511) | binds | binds | binds | binding [2]: binds; binding [3]: binds |
| Snq2-mDHFR-F[3] (prey PCA construct) (from UniProt P32568 1-1501) | – | binds | – | – |
| peptidyl-prolyl cis-trans isomerase Fpr1-mDHFR-F[3] (prey PCA construct) (from UniProt P20081 1-114) | – | – | – | binding [7]: binds |
| Hxt1-mDHFR-F[3] (prey PCA construct) (protein, UniProt P32465 1-570) MNSTPDLISPQKSNSSNSYELESGRSKAMNTPEGKNESFHDNLSESQVQPAVAPPNTGKGVYVTVSICCVMVAFGGFIFGWDTGTISGFVAQTDFLRRFGMKHHDGSHYLSKVRTGLIVSIFNIGCAIGGIVLAKLGDMYGRRIGLIVVVVIYTIGIIIQIASINKWYQYFIGRIISGLGVGGITVLSPMLISEVAPSEMRGTLVSCYQVMITLGIFLGYCTNFGTKNYSNSVQWRVPLGLCFAWALFMIGGMMFVPESPRYLVEAGRIDEARASLAKVNKCPPDHPYIQYELETIEASVEEMRAAGTASWGELFTGKPAMFQRTMMGIMIQSLQQLTGDNYFFYYGTIVFQAVGLSDSFETSIVFGVVNFFSTCCSLYTVDRFGRRNCLMWGAVGMVCCYVVYASVGVTRLWPNGQDQPSSKGAGNCMIVFACFYIFCFATTWAPIAYVVISECFPLRVKSKCMSIASAANWIWGFLISFFTPFITGAINFYYGYVFMGCMVFAYFYVFFFVPETKGLSLEEVNDMYAEGVLPWKSASWVPVSKRGADYNADDLMHDDQPFYKSLFSRK | binds | – | binds | binding [8]: binds |
